The other results are listed elsewhere or left out. Most entries show no effect beyond the scatter of the controls.

By UniProt entry, the sequences of proteins in these tests, tags left out. Where a name states a change or a piece, a line headed by the entry shows the natural chain unless it says otherwise.
UniProt P09126: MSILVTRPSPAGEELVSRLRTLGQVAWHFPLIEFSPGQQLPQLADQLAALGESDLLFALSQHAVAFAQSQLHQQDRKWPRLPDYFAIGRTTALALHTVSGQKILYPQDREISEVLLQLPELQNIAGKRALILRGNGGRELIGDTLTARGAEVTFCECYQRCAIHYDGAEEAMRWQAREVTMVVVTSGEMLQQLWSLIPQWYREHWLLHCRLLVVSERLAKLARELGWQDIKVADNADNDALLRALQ
UniProt P09832: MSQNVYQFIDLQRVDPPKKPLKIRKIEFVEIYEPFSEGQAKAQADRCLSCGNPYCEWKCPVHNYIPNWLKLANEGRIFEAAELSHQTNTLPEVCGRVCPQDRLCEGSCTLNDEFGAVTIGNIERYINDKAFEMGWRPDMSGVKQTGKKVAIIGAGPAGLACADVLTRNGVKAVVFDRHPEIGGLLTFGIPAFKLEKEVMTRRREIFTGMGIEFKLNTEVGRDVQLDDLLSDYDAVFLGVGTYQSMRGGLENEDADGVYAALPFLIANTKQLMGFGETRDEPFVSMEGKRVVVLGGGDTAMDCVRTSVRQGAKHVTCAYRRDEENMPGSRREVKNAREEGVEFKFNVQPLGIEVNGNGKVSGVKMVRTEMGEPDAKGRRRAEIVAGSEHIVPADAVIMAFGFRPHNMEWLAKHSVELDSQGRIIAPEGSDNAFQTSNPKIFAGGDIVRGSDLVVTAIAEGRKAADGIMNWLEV
UniProt P00935: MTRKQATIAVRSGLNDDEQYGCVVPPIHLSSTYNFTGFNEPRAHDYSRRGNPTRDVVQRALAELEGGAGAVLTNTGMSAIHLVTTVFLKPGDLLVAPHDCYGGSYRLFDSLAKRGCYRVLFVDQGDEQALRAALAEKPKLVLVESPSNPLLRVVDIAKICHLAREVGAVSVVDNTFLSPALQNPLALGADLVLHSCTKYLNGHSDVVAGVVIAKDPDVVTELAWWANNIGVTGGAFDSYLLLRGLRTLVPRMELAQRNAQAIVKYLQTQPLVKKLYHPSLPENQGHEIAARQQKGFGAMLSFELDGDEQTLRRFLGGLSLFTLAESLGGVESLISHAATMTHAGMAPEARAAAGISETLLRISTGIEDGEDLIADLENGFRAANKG
UniProt P04993: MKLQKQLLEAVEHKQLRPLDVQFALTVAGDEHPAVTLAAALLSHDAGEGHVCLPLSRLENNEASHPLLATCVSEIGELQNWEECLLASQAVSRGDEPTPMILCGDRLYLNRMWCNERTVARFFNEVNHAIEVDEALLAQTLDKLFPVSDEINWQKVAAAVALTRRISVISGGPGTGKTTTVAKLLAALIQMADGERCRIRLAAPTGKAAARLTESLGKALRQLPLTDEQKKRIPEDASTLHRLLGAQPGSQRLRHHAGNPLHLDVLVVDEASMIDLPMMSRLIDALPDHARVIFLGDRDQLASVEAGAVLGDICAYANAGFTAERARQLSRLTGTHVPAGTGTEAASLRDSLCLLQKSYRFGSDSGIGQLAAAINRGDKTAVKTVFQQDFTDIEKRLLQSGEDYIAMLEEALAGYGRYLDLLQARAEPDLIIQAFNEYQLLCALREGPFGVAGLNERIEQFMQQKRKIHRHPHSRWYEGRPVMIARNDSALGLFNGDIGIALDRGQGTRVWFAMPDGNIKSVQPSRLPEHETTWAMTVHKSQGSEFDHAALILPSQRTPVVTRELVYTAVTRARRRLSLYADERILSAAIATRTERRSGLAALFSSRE
UniProt P00934: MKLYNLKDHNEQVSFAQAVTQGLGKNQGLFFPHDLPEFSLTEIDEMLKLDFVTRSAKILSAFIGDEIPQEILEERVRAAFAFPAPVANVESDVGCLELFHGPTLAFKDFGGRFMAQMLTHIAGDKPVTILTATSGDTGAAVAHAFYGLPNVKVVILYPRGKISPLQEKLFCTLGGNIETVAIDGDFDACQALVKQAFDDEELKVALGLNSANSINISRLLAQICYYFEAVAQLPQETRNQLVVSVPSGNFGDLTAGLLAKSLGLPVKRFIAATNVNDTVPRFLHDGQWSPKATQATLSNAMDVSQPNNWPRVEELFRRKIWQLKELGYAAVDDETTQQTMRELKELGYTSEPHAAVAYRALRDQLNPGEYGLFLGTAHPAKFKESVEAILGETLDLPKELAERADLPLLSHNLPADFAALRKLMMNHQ
UniProt P08401: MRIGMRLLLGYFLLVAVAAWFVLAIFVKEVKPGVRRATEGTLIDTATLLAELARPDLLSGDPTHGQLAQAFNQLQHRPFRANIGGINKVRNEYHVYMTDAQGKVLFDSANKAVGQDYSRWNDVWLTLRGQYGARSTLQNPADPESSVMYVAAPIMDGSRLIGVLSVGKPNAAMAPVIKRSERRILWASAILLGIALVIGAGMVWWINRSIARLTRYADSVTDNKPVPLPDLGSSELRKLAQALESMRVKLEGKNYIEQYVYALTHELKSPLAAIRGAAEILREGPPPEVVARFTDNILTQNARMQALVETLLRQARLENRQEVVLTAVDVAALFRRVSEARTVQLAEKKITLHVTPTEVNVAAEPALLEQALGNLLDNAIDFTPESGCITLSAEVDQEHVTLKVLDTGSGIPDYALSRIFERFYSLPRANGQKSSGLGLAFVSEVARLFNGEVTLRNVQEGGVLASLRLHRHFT
UniProt P09549: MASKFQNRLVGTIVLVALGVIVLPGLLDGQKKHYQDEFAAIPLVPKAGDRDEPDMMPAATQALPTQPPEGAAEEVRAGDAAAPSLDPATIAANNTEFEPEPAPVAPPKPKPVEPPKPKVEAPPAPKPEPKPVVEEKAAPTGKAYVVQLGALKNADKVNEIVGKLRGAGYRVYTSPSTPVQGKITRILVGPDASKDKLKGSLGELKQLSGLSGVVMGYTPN
UniProt P00944: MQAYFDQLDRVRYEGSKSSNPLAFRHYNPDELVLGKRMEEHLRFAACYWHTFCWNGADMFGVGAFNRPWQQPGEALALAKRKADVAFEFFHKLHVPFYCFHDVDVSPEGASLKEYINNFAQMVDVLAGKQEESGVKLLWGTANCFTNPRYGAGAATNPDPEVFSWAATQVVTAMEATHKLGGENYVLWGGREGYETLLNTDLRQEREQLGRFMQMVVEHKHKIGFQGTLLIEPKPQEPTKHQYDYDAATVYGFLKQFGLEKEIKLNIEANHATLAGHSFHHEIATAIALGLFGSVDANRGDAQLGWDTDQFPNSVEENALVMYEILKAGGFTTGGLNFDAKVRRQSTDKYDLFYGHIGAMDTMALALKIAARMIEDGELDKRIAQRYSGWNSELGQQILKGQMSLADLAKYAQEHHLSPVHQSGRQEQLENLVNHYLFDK
UniProt P04994: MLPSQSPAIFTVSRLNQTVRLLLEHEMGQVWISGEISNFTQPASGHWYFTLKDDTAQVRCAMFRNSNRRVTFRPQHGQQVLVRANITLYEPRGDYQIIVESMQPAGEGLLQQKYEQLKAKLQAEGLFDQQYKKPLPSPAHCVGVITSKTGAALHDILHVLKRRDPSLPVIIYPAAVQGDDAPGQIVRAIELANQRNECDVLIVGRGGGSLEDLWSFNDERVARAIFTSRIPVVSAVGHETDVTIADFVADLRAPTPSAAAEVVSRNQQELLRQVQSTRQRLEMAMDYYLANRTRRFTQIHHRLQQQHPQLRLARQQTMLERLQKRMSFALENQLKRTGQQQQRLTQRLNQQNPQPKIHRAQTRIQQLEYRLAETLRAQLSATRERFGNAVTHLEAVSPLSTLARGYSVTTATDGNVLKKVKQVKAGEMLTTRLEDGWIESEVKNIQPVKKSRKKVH
UniProt P07822: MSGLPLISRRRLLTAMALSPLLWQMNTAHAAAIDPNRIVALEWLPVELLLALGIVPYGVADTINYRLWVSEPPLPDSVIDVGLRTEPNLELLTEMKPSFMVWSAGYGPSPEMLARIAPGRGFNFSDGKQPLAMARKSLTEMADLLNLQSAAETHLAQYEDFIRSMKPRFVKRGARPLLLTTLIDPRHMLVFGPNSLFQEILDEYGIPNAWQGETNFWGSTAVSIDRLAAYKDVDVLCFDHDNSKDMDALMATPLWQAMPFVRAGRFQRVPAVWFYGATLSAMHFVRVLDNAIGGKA
UniProt P07001: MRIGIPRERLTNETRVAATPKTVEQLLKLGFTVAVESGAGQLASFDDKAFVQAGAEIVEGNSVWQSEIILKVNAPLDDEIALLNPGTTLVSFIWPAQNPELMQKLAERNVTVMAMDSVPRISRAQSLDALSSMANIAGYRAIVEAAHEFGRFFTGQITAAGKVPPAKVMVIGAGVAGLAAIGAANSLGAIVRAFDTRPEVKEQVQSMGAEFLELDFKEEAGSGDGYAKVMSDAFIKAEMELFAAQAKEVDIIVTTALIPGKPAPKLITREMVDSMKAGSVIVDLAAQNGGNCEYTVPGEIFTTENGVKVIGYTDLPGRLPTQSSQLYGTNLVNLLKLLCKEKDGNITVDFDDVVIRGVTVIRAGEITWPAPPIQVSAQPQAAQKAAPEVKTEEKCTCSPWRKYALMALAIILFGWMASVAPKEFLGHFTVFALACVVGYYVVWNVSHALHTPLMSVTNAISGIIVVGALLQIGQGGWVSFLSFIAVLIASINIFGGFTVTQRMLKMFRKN
UniProt P00936: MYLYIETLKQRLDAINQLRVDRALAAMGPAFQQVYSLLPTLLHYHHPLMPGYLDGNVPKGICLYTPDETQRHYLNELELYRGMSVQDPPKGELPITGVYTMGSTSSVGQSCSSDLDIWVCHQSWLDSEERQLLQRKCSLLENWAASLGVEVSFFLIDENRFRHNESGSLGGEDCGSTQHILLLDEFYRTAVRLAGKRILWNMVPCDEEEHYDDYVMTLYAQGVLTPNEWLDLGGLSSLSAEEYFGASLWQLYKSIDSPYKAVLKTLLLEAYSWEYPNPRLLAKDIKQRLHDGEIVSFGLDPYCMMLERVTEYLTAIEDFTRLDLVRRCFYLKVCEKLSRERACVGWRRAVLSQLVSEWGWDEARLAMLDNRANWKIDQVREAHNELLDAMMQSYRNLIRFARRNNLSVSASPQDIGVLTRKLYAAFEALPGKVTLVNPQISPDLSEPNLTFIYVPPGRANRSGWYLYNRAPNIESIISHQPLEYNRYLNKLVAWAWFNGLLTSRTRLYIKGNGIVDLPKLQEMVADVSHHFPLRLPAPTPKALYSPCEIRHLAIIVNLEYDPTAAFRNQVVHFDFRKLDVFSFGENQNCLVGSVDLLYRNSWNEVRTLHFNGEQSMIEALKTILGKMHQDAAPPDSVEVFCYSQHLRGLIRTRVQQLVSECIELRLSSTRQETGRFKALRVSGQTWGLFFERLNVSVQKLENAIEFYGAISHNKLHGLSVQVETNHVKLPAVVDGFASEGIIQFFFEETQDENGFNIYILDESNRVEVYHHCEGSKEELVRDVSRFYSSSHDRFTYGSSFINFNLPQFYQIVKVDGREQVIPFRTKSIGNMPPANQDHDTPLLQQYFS
UniProt P06968, whole entry, looked up: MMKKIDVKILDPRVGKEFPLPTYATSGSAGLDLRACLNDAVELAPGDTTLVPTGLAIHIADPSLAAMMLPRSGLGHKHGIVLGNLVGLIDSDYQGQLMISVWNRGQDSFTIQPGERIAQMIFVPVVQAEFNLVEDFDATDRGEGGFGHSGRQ
UniProt P07330: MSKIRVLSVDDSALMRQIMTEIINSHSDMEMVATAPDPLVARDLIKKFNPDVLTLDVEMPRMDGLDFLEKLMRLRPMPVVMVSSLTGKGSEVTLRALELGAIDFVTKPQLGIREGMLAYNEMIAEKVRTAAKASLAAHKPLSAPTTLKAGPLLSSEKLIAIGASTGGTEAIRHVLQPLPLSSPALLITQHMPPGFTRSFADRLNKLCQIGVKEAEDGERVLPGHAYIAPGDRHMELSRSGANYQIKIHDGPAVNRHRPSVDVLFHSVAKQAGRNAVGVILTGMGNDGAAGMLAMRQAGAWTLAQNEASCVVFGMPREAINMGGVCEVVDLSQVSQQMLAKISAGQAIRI
UniProt P08142: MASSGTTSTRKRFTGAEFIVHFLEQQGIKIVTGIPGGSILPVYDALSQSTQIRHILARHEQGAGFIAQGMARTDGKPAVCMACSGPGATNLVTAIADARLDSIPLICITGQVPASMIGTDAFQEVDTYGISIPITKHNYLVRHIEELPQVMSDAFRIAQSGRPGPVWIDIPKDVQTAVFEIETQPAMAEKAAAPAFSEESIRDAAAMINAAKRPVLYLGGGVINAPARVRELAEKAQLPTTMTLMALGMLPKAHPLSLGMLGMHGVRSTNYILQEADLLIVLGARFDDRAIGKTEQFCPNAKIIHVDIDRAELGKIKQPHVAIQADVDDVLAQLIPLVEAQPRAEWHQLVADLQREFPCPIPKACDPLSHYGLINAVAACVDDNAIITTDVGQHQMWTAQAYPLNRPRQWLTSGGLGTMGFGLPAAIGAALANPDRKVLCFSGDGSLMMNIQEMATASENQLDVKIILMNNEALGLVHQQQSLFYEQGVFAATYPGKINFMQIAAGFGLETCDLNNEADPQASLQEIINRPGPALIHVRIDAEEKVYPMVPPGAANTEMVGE

Compound in this assay: CC1(C)S[C@@H]2[C@H](NC(=O)[C@H](N)c3ccccc3)C(=O)N2[C@H]1C(=O)O [ampicillin]
In words: log2 fold change of tryptic peptide abundance, ligand vs vehicle (limited proteolysis) (log2 ratio); higher = more trypsin-susceptible (destabilized). The following applies: ligand concentration: 10 uM; sample: E. coli crude lysate.
For “UniProt P00959 (peptide sequence: DIFLLSPDAGAKPGHQVK, peptide start residue: 660)”, the log2 fold change worked out at 0.141.

Consider “UniProt P06846 (peptide sequence: VLNDDPTLNVK, peptide start residue: 21)”, for which the log2 fold change is 0.0933.

In the case of “UniProt P06989 (peptide sequence: LYASGTKR, peptide start residue: 138)”, the log2 fold change was -0.123.

“UniProt P09126 (peptide sequence: TTALALHTVSGQK, peptide start residue: 90)”: the log2 fold change worked out at 0.332.

With “UniProt P09832 (peptide sequence: AFEMGWRPDMSGVK, peptide start residue: 130)”, the log2 fold change came to 0.27.

Turning to “UniProt P00935 (peptide sequence: AAAGISETLLR, peptide start residue: 351)”, the log2 fold change was 0.0616.

Consider “UniProt P06987 (peptide sequence: AEFTYQR, peptide start residue: 283)”, for which the log2 fold change is -0.112.

As to “UniProt P07395 (peptide sequence: GDLESVLDLTGK, peptide start residue: 619)”, the log2 fold change came out at 0.26.

With “UniProt P04993 (peptide sequence: EGPFGVAGLNER, peptide start residue: 446)”, the log2 fold change is -0.263.

With “UniProt P00934 (peptide sequence: ADLPLLSHNLPADFAALRK, peptide start residue: 404)”, the log2 fold change was 0.277.

For the target “UniProt P08401 (peptide sequence: FTDNILTQNAR, peptide start residue: 293)”, the log2 fold change was -0.103.

As for “UniProt P09549 (peptide sequence: NADKVNEIVGK, peptide start residue: 153)”, the log2 fold change was 0.315.

Turning to “UniProt P00944 (peptide sequence: MIEDGELDKR, peptide start residue: 373)”, the log2 fold change was determined as 0.646.

With “UniProt P06709 (peptide sequence: KLAGILVELTGK, peptide start residue: 183)”, the log2 fold change was -0.291.

For the target “UniProt P04995 (peptide sequence: IHSLFTVPK, peptide start residue: 88)”, the log2 fold change is -0.295.

In the case of “UniProt P04994 (peptide sequence: LEDGWIESEVK, peptide start residue: 433)”, the log2 fold change is -0.498.

“UniProt P00582 (peptide sequence: QLQTILFEK, peptide start residue: 585)”: the log2 fold change was 0.431.

As for “UniProt P07822 (peptide sequence: GFNFSDGKQPLAMAR, peptide start residue: 121)”, the log2 fold change is -0.314.

Regarding “UniProt P07014 (peptide sequence: IKPYLLNNGQNPPAR, peptide start residue: 117)”, the log2 fold change was -0.086.

“UniProt P00448 (peptide sequence: QTMEIHHTK, peptide start residue: 22)”: the log2 fold change is -0.519.

Regarding “UniProt P07001 (peptide sequence: AEMELFAAQAK, peptide start residue: 237)”, the log2 fold change came out at 0.146.

Regarding “UniProt P02359 (peptide sequence: KREDVHR, peptide start residue: 137)”, the log2 fold change stood at 0.175.

For the target “UniProt P00562 (peptide sequence: HWLYNATVGAGLPINHTVR, peptide start residue: 596)”, the log2 fold change was 0.279.

With “UniProt P00370 (peptide sequence: KLSNNTACVFTGK, peptide start residue: 185)”, the log2 fold change was -0.392.

As to “UniProt P05458 (peptide sequence: VPNKESKK, peptide start residue: 255)”, the log2 fold change was -0.3.

“UniProt P00936 (peptide sequence: RNNLSVSASPQDIGVLTR, peptide start residue: 403)”: the log2 fold change was -0.194.

For “UniProt P06968 (peptide sequence: GEGGFGHSGRQ, peptide start residue: 142)”, the log2 fold change is 0.0775.

Consider “UniProt P07330 (peptide sequence: LRPMPVVMVSSLTGK, peptide start residue: 74)”, for which the log2 fold change was -0.488.

“UniProt P08142 (peptide sequence: AEWHQLVADLQR, peptide start residue: 344)”: the log2 fold change worked out at 0.105.

Regarding “UniProt P08368 (peptide sequence: QLLALHPALPVLFLTAR, peptide start residue: 68)”, the log2 fold change is -0.801.

With “UniProt P00393 (peptide sequence: TITIAELR, peptide start residue: 93)”, the log2 fold change is -0.349.

The record behind these values is the supplement of paper PMC12819154, “High-throughput peptide-centric local stability assay extends protein–ligand identification to membrane proteins, tissues and bacteria” (Nature Structural & Molecular Biology, 2025).
